# No constants are given. Whether binding was seen depends on the method and setting. Binding seen in cells or lysates may run through a third protein. Some binding calls cover weakened binding; strength is not graded here.
# Biological target: GluN2B (mouse (endogenous in forebrain)) (UniProt Q01097)
# Experiment: co-IP; immuno-depletion: extract supernatant of Glun1^TAP/TAP/Psd95^EGFP/EGFP mice incubated with antibodies (GluN2A, GluN2B, GFP, PSD95/PSD93, non-specific IgG) 2-16 h at 6-10 °C, captured on protein G magnetic beads; what is left separated by BNP and immunoblotted with Flag antibody for TAP-GluN1
substance,measurement,value
GluN2A (from UniProt P35436 23-1464),binding,binds

# Source: PMC5227094
